Test results from US20220106406A1 (UNIVERSITY OF KENTUCKY RESEARCH FOUNDATION, published 2022).
These are yes or no findings as the source states them, for the method shown. Some binding calls cover weakened binding; strength is not graded here.

The chains behind the UniProt entries cited, without tags or fusion partners. Where a name states a change or a piece, a line headed by the entry shows the natural chain unless it says otherwise. Residues count along the entry.
UniProt O75365: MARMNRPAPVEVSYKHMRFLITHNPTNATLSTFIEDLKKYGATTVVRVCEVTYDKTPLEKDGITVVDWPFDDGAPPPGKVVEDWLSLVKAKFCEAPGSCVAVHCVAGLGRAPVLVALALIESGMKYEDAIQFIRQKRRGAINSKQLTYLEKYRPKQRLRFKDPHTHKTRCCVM
3×FLAG-PRL-3: residues 1-170 of O75365

Experiments:
GFP-PRL-3 = GFP-PRL-3 (UniProt O75365); assay: immunofluorescence on fixed, permeabilized transfected HCT116 cells
[1] = target: Recombinant PRL-3 (human) (UniProt O75365); assay: indirect ELISA, 100 ng PRL coated, anti-His detection, 450 nm
3×FLAG-PRL-3 (human) = 3×FLAG-PRL-3 (human) (UniProt O75365); assay: immunoprecipitation from HEK293T lysate with nanobody-coupled Dynabeads, anti-FLAG blot
[2] = target: Recombinant PRL-3 (human) (UniProt O75365); assay: summary of ELISA, immunoprecipitation and immunofluorescence
[3] = target: Recombinant PRL-3 (human) (UniProt O75365); assay: hydrogen-deuterium exchange
[4] = target: Recombinant PRL-3 (human) (UniProt O75365); assay: indirect ELISA, PRL coated, anti-His-HRP detection

binding (GFP-PRL-3)	binding [1]	binding (3×FLAG-PRL-3 (human))	binding [2]	binding [3]	binding [4]	Binder
binds	binds	binds	binds	binds	binds	NB26 (VHH, Alpaca nanobody, C-terminal 6xHis tag intact; also called nanobody 26; Nanobody 26) VHH: QVQLQESGGGLVQPGGSLKLSCVVTGLHYYTEGWFRQAPGKEREGVSCISSSDGRTDYIDSVKGRFTISEDNDNKTVYLQMNTLKPDDTGVYYCVAERGPRGSTWWETYDYWGQGTHVTVSS
–	binds	–	–	–	binds	NB92 (VHH) VHH: QVQLQESGGGLVHTGGSLILSCAASRSFFIFDVMGWYRQAPGNHREFVTSITNGGNVYYVDSVKGRFNIPKDDSNTTMYLEMNSLKPEDTAVYTCYGQIHKPRVTTSWGQGTQVTVSS
binds	binds	binds	binds	–	binds	NB4 (VHH) VHH: QVQLQESGGGLVQTGGSLRLSCAASQSTYNFDVMGWYRLAPGKQREFLTSITNGGNIYYADSVKGRFTIARDDSKTTMYLEMNSLKPEDTAVYTCYGQTHKPRVTTSWGQGTQVTVSS
–	binds	–	–	–	binds	NB13 (VHH) VHH: QVQLQESGGGLVQTGGSLRLSCAASQSTFNFDVMGWYRLAPGKQREFLTSITNGGNIYYADSVKGRFTIARDDSKTTMYLEMNSLKPEDTAVYTCYGQTHKPRVTTSWGQGTQVTVSS
binds	binds	binds	binds	–	binds	NB16 (VHH) VHH: QVQLQESGGGLVQTGGSLRLSCAASQSTFNFDVMGWYRLAPGKQREFLTSITNGGNIYYADSVKGRFTTARDDSKTTMYLEMNSLKPEDTAVYTCYGQTHKPRVTTSWGQGTQVTVSS
–	binds	–	–	–	binds	NB18 (VHH) VHH: QVQLQESGGGLVQTGGSLRLSCAASQSTFNFDVMGWYRLAPGKQREFLTSITNGGNIYYADSVKGRFTTARDDSKTTMYLEMNSLKPEDTAVYTCYGQTHKPRVTTSWGQGTQVTVSS
–	binds	–	–	–	binds	NB7 (VHH) VHH: QVQLQESGGGLVQTGGSLRLSCAASQSTFNFYVLGWYRLAPGKQREFLTSITNGGNIYYADSVKGRFTIARDDSKTTMYLEMNSLKPEDTAVYTCYGQTHKPRVTTSWGQGTQVTVSS
–	binds	–	–	–	binds	NB29 (VHH) VHH: QVQLQESGGGLVQTGGSLRLSCAASQSTYNFDVMGWYRLAPGKQREFLTSITNGGNIYYADSVKGRFTIARDDSKTTMYLEMNSLKPEDTAVYTCYGQTHKPRVTTSWGQGTQVTVSS
–	binds	–	–	–	binds	NB90 (VHH) VHH: QVQLQESGGGLVQTGGSLRLSCAASQSTFNFDVMGWYRLAPGKQREFLTSITNGGNIYYADSVKGRFTIARDDSKTTMYLEMNSLKPEDTAVYTCYGQTHKPRVTTSWGQGTQVTVSS
binds	binds	binds	binds	–	binds	NB10 (VHH, Alpaca nanobody, C-terminal 6xHis tag intact; also called nanobody 10) VHH: QVQLQESGGGLVQTGGSLRLSCAASQSTFNFNVMGWYRLAPGKQREFLPSLTNGGNIYYADSVKGRFTIARDDSKTTTYLEMNSLKPEDTAVYTCYGQTHKPRVTTSWGQGTQVTVSS
–	binds	–	–	–	binds	NB68 (VHH) VHH: QVQLQESGGGLVQAGGSLRLSCSASGRTSSMYAMGWFRQAPGKEREFVAGIRWSVGTTSYADSVKGRFTISRDNAENTVYLDMNALKSEDTAMYYCTNDSGRPRSQGTQVTVSS
binds	binds	binds	binds	binds	binds	NB19 (VHH) VHH: QVQLQESGGGLVQAGGSLGLSCAASRSIFNFKVMGWYRQAPGKQRELVASITNSDNTYYADSVKGRFTISREDAKTTMYLEMNSLKPEDTAVYRCYGQNWGLRATTYWGQGTQVTVSS
binds	binds	binds	binds	–	binds	NB84 (VHH) VHH: QVQLQESGGGLVQAGGSLGLSCAASRSIFNFKVMGWYRQAPGKQRELVASITNSDNTYYADSVKGRFTISREDAKTTMYLEMNSLKPEDTTVYRCYGQNWGLRATTYWGQGTQVTVSS
